Results reported in PubChem BioAssay AID720504 (National Center for Advancing Translational Sciences (NCATS), 2013).
About 10,000 (2.8%) of roughly 360,000 compounds were called active. Inconclusive results, whose numbers are uncertain, are shown with a selection of clear calls. Calls follow the shape of the dose curve; as a rule, active = well fitted inhibition curve with a large enough effect; inconclusive = small, poorly fitted or top-dose-only effect; inactive = flat fitted curve, though single readings scatter. Where the call is inconclusive, the potency comes from a doubtful curve fit.

Chains of the proteins cited; added tags and fusions are not shown.
UniProt P53350, whole entry, looked up: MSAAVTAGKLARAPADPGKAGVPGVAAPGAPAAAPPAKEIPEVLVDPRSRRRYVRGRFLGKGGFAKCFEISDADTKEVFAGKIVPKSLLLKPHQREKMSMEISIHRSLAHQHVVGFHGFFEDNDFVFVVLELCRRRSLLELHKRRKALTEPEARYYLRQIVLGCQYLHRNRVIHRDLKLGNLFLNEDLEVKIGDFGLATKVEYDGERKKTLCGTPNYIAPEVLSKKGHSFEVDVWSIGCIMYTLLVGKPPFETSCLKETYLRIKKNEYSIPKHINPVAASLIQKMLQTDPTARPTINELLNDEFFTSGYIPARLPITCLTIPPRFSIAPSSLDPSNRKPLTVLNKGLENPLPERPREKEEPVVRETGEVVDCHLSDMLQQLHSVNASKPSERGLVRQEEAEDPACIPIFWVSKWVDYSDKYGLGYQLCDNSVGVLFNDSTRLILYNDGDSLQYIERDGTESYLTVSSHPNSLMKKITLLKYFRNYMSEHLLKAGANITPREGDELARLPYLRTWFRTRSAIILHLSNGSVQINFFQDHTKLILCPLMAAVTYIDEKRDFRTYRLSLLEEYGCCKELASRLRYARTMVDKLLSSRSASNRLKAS

What follows are molecules tested against Serine/threonine-protein kinase PLK1 (Homo sapiens) (UniProt P53350) (assay: qHTS for Inhibitors of PLK1-PDB (polo-like kinase 1 - polo-box domain): Primary Screen). Settings: Plk1 PBD binding of FITC phosphopeptide, fluorescence polarization.
% is scaled to controls: 0 for no effect and ±100 for the full control effect; potency is read from the fitted curve at half-maximal effect.
Also: nearly all actives have a fitted effect of over 65% in size.
For max response, negative = inhibition in this document: series mostly up to about 57 µM.

Compound | max response, negative = inhibition | Potency
O=C(NCc1cccc(Cl)c1)C1Cc2c(-c3cccc(F)c3)ccnc2O1 (centres undefined) | inactive: 5.03% | –
COc1ccccc1N(CC(=O)NCc1ccco1)S(=O)(=O)c1ccc(C)cc1 | – | active: 26.7 µM
Cc1nnc(SCc2cc(=O)n3[nH]cnc3n2)s1 | – | inconclusive: 3.77 µM [inhibitor, single point]
Cc1csc(/C(=N/OC(=O)c2ccco2)C(N)=O)n1 | – | inconclusive: 18.9 µM [inhibitor, partial curve]
COc1ccc(C[C@H]2CN3C(=NC[C@@H]3C)N2CCNC(=O)CCC2CCCCC2)cc1 | – | inconclusive: 23.8 µM [inhibitor, single point]
C=CC(=O)N1C/C(=C/c2ccccc2)C(=O)/C(=C\c2ccccc2)C1 | – | inconclusive: 26.7 µM [inhibitor, partial curve]
CCc1nn(CCCC(=O)N2CCC(C)CC2)c(=O)c2cc3occc3n12 | inactive: -13.6% | –
CC1CC(C)CN(CCOc2ccccc2-c2ccccc2)C1 (centres undefined) | inactive: 4.95% | –
Cc1cc(C)c(S(=O)(=O)Nc2nnc(C3CCCCC3)s2)c(C)c1 | – | inconclusive: 23.8 µM [inhibitor, single point]
CN1C(=O)/C(=C2\SC(=S)N(CCCCCC(=O)O)C2=O)c2ccccc21 | – | inconclusive: 21.2 µM [inhibitor, single point]
COc1ccc(CNC(=O)c2cn(Cc3ccccc3F)c(=O)s2)cc1 | inactive: -2.75% | –
COc1ccccc1NC(=O)c1nc[nH]c1C(=O)Nc1ccccc1OC | – | inconclusive: 26.7 µM [inhibitor, partial curve]
COc1ccccc1N1CCN(CC(=O)c2ccc3ccn(C(C)=O)c3c2)CC1 | inactive: -10.8% | –
Cc1ncc(CN2CCC(CO)(CCOc3ccccc3)CC2)s1 | – | inconclusive: 37.7 µM [inhibitor, single point]
Cc1ccc(C(=O)/C=C/Nc2ccc(S(=O)(=O)Nc3onc(C)c3C)cc2)cc1 | inactive: -13.9% | –
Cc1cccc(NC(=O)c2ccccc2Br)n1 | – | active: 26.7 µM
O=C(c1cc(-c2ccco2)on1)N1CCCc2ccccc21 | inconclusive: -31.2% [inhibitor] | –
Cc1cccc(N=C2NC(=O)/C(=C/C=C/c3ccco3)S2)c1 | – | inconclusive: 16.8 µM [inhibitor, partial curve]
CC(C)c1nc2sc3c(SCC(=O)NCc4ccco4)ncnc3c2c2c1CCC2 | – | inconclusive: 26.7 µM [inhibitor, single point]
CCc1ccc(-c2nc(CS(=O)CC(=O)NCc3ccc4c(c3)OCO4)c(C)o2)cc1 (centres undefined) | inconclusive: -31% [inhibitor] | –
COC(=O)NNC(=O)C1CCC(C(=O)NNC(=O)OC)CC1 (centres undefined) | – | inconclusive: 8.44 µM [inhibitor, single point]
Cc1nc2ccc(NC(=S)N3CCCC3)cc2nc1C | inactive: -11.2% | –
COc1ccc2c(c1)c(C(=O)CN1CCc3ccccc3C1)c(C)n2C | inactive: -11% | –
C=CCc1c(C)nc(N2CCSCC2)[nH]c1=O | – | active: 26.7 µM
O=S(=O)(/C=C/C=C/S(=O)(=O)c1ccccc1)c1ccccc1 | – | active: 2.67 µM

Compound | max response, negative = inhibition | Potency
Nc1ccc(N2CCN(c3ccc(F)cc3)CC2)cc1 | inactive: -9.51% | –
Cc1nc(SCc2ccc([N+](=O)[O-])cc2)n[nH]1 | inactive: -16.5% | –
O=C(CCCc1ccccc1)NCCc1ccc(F)cc1 | inactive: -13.9% | –
Cc1nc2scc(C)n2c(=O)c1S(=O)(=O)NC(C)c1ccccc1 (centres undefined) | – | active: 18.9 µM
COc1ccc(OC)c2cc3ccccc3cc12 | – | active: 2.67 µM
Cc1n[nH]c(=O)c2c(NC(=O)CSc3ccc(F)cc3)oc(C)c12 | – | inconclusive: 21.2 µM [inhibitor, partial curve]
COc1ccc(C2C(C#N)=C(N)Oc3n[nH]c(C)c32)cc1CSc1ccccn1 (centres undefined) | – | inconclusive: 23.8 µM [inhibitor, partial curve]
CCCn1nc(NC(=O)c2ccco2)c2cc3ccccc3nc21 | – | inconclusive: 26.7 µM [inhibitor, partial curve]
COc1ccc(C(CC(=O)O)NS(=O)(=O)c2ccc3c(c2)N(C(C)=O)CC(C)O3)cc1 (centres undefined) | – | active: 26.7 µM
C=C(C)C(=O)Nc1cccc(C2=NOC3(C2)C[C@@H](C(N)=O)N(C(=O)/C=C/CC)C3)c1 (some centres undefined) | – | inconclusive: 33.6 µM [inhibitor, partial curve]
COc1ccc(Br)cc1C(=O)NC(=S)Nc1ccc(Cl)c(C(=O)O)c1 | – | active: 11.9 µM
COc1ccc(/C=N/NC(=O)c2ccn[nH]2)cc1CN1CCOCC1 | inactive: -6.47% | –
N/C(=N\NC(=O)c1cccs1)c1cc2cc(Cl)ccc2oc1=O | – | active: 23.8 µM
CCN(Cc1ccncc1)C(=S)NCc1ccccc1 | – | inconclusive: 23.8 µM [inhibitor, single point]
O=C(c1cc2ccccc2oc1=O)N(Cc1ccco1)Cc1cccs1 | inactive: -3.98% | –
COc1ccc(NC(=O)c2cc(-c3ccc(C)o3)nc3ccccc23)cc1OC | – | inconclusive: 26.7 µM [inhibitor, partial curve]
S=C(NNc1ccnc2cc(Cl)ccc12)Nc1ccccc1Cl | – | active: 15 µM
S=C(c1ccc(-c2ccccc2Cl)o1)N1CCOCC1 | – | active: 5.32 µM
CCOc1ccc(OCc2ccc(C(=O)Nc3cccnc3)o2)cc1 | inactive: -12.5% | –
Cc1ccccc1NC(=O)c1ccc(COc2ccc3c(C)cc(=O)oc3c2)cc1 | – | inconclusive: 8.44 µM [inhibitor, single point]
Clc1ccccc1CSc1nc2ccncc2[nH]1 | – | inconclusive: 29.9 µM [inhibitor, partial curve]
Cc1ccc(-c2cc(C(=O)N/N=C/C(Br)=C/c3ccccc3)n[nH]2)o1 | – | inconclusive: 16.8 µM [inhibitor, partial curve]
COc1ccc(CCNC(=O)CS(=O)Cc2nc(-c3ccccc3F)oc2C)cc1OC (centres undefined) | – | inconclusive: 23.8 µM [inhibitor, single point]
O=C(C1=C(O)C(=O)N(CCOCCO)C1c1cccs1)c1cccs1 (centres undefined) | inactive: -5.16% | –
CCCc1nc(N2CCOCC2)c(C#N)c2c1CCCC2 | – | inconclusive: 26.7 µM [inhibitor, single point]

Compound | max response, negative = inhibition | Potency
Cc1ccccc1NC(=O)Cc1nc(-c2c[nH]c(C(=O)N3CCCC3)c2)cs1 | inactive: -5.9% | –
COc1ccc(-c2nc(CS(=O)CC(=O)N3CCc4ccccc4C3)c(C)o2)cc1 (centres undefined) | – | inconclusive: 29.9 µM [inhibitor, partial curve]
CCNC(=O)c1sc(=S)n(-c2ccc(C)cc2)c1N | – | inconclusive: 26.7 µM [inhibitor, single point]
CC(C)CC(c1nnnn1C1CCCC1)N1CCC(C(N)=O)CC1 (centres undefined) | – | inconclusive: 26.7 µM [inhibitor, single point]
Cc1cccc(NC(=O)N2CCCC2C(=O)Nc2ccccc2)c1 (centres undefined) | inactive: -5.28% | –
O=C(c1cc(-c2ccc(Br)cc2)on1)N1CCc2ccccc2C1 | – | active: 33.6 µM
COc1ccc(OC)c(NC(=O)c2ccccc2N(Cc2ccccc2)S(C)(=O)=O)c1 | inactive: -9.04% | –
CCCN(Cc1cc2cc(C)ccc2[nH]c1=O)C(=O)c1ccccn1 | – | active: 18.9 µM
CCN1CC=C2C(C#N)=C(N)C(C#N)(C#N)[C@H](c3ccoc3)[C@H]2C1 | – | inconclusive: 18.9 µM [inhibitor, partial curve]
CSc1nsc2nc(=O)c(/C=C3\C=Nc4ccccc43)c(N)n12 | – | inconclusive: 26.7 µM [inhibitor, partial curve, poor fit]
CN(C(=O)CCc1ccccc1F)C1CCCN(Cc2ccccc2F)C1 (centres undefined) | – | active: 3.36 µM
CN1CCN(C(=S)Nc2cc([N+](=O)[O-])ccc2Cl)CC1 | – | inconclusive: 29.9 µM [inhibitor, partial curve]
Cc1occc1C(=O)Nc1nccs1 | – | inconclusive: 26.7 µM [inhibitor, single point]
CCOC(=O)C1CCCN(c2cc(C)nc3cc(-c4ccc(F)cc4)nn23)C1 (centres undefined) | inactive: -16.9% | –
COCC(=O)Nc1ccc(N2CCOCC2)c(S(=O)(=O)Nc2ccc(OC)cc2)c1 | – | inconclusive: 26.7 µM [inhibitor, partial curve]
CCC(=O)N1CCN(c2ccccc2NC(=O)c2ccc(OC)c(Cl)c2)CC1 | – | inconclusive: 37.7 µM [inhibitor, single point]
COC(=O)c1cccc(-n2c(CCC(=O)O)ccc2-c2cccs2)c1 | – | inconclusive: 29.9 µM [inhibitor, partial curve]
C/C=C/Cn1c(SCc2ccccc2)nc2c1c(=O)[nH]c(=O)n2C | – | active: 23.8 µM
COc1c(C)cc(C(=O)C2CCCN(C(=O)/C=C/c3ccccn3)C2)cc1C (centres undefined) | inconclusive: -30.5% [inhibitor] | –
O=C(O)CC(=O)Nc1ccccc1C(=O)O | – | inconclusive: 23.8 µM [inhibitor, single point]
COc1ccccc1CN1CN(S(=O)(=O)c2ccccc2)c2nc3ccccc3nc21 | – | inconclusive: 23.8 µM [inhibitor, partial curve]
COc1ccc(C(=O)C(=O)N2CCC(Cc3ccccc3)CC2)cc1OC | inactive: -7.01% | –
CC(C)c1nnc(N2C(=O)C(O)=C(C(=O)c3cccs3)C2c2ccccc2)s1 (centres undefined) | – | inconclusive: 13.4 µM [inhibitor, partial curve]
O=C(Nc1ccc2ncccc2c1)Nc1ccc2ncccc2c1 | inactive: 0.245% | –

Single records (already shown).
COCC(=O)Nc1ccc(N2CCOCC2)c(S(=O)(=O)Nc2ccc(OC)cc2)c1 is listed as Potency: inconclusive: 26.7 µM [inhibitor, partial curve]
CN1CCN(C(=S)Nc2cc([N+](=O)[O-])ccc2Cl)CC1 is listed as Potency: inconclusive: 29.9 µM [inhibitor, partial curve]
COc1ccc(OC)c(NC(=O)c2ccccc2N(Cc2ccccc2)S(C)(=O)=O)c1 is listed as max response, negative = inhibition: inactive: -9.04%
